According to PubChem BioAssay AID2762 (National Center for Advancing Translational Sciences (NCATS), 2010):
Inconclusive means that the source gave no clear call. Such entries were picked first, then a sample of the others. Potencies of inconclusive entries are doubtful fits and often do not repeat. Active and inactive are the calls of the source. Calls come from the whole dose curve; as a rule, active = well fitted inhibition curve with a large enough effect; inconclusive = small, poorly fitted or top-dose-only effect, or effect the other way; inactive = no such curve, though single readings can be large or run the other way.

Amino acid sequences for entries named in this document (tags omitted). A change or cut given only in a name is not applied to a line headed by its entry.
UniProt P51450: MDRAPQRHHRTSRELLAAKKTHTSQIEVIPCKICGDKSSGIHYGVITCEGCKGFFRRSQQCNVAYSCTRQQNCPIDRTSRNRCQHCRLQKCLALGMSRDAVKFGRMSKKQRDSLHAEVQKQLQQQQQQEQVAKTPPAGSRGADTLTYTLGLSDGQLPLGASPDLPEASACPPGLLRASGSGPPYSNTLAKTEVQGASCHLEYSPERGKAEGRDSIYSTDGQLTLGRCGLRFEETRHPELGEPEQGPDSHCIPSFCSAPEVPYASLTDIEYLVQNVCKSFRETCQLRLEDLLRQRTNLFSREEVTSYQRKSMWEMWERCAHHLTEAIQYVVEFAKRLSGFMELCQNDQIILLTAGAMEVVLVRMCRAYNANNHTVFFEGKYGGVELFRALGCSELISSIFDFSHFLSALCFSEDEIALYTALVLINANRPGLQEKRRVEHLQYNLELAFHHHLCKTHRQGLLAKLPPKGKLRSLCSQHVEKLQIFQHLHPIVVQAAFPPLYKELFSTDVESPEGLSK

target: Nuclear receptor ROR-gamma (Mus musculus) (UniProt P51450); assay: Concentration response confirmation assay for inhibitors of ROR gamma transcriptional activity; conditions: Drosophila S2 Gal4-RORgamma UAS-luciferase, 20 h; series mostly up to 46.1 µM
Excerpt: NIH Molecular Libraries Probe Production Network [MLPCN] NIH Chemical Genomics Center [NCGC] MLPCN Grant: R03 DA026211-01 Assay Provider: Dan Littman, New York University Assay Overview: The retinoic acid-related orphan receptor (ROR) gamma is a transcription factor that has a central role in the differentiation of Th17 cells, a subset of T helper cells that secrete the inflammatory cytokines IL-17, IL-17F, and IL-22. Th17 cells have been implicated in graft versus host disease, autoimmune disease and asthma. ROR gamma is induced in naive T helper cells in the presence of TGF-beta combined with IL-6, IL-21, or IL-23, and thereafter directs the expression of the Th17 lineage cytokines. To study the mechanism of action of ROR gamma, an insect cell-based assay was screened. This Drosophila Schneider cell line was stably transfected with two vectors: a gene expressing a fusion of the Gal4 DNA binding domain and ROR gamma transactivation domain under the control of the metallothionine promoter and a Photinus luciferase reporter regulated by the Gal4 binding site enhancer, UAS. […] Small molecule inhibitors of ROR gamma activity are detected by a decrease in luciferase reporter activity.
Assay Protocol Summary: For screening, 600 cells in 4 uL/well were dispensed into white solid 1536-well plates (Grenier) using a solenoid-based dispenser. Following transfer of 23 nL compound or DMSO vehicle by a pin tool, the plates were incubated 1 hr at ambient temperature, and 1 uL/well copper sulfate (700 uM final concentration) was added. The plates were centrifuged 15 s at 1000 RPM and incubated 20 hr at ambient temperature. After addition of 1.5 uL Photinus luciferase detection reagent, the plates were incubated 10 min at ambient temperature and then read by an ViewLux (Perkin Elmer) to detect luminescence. Keywords: NIH Roadmap, MLPCN, MLI, MLSMR, qHTS, NCGC, qHTS, nuclear hormone receptor, retinoic acid-related orphan receptor, ROR gamma

Compound | Potency
Cc1cc(C)c2nc(NC(=O)c3ccc4c(c3)OCO4)sc2c1 | inconclusive: 0.056 µM [inhibitor, full curve, poor fit]
COc1cccc2cc(-c3n[nH]c(=S)n3C)oc12 | active: 15.8 µM
O=[N+]([O-])c1cc2c(cc1/C=N/Nc1nc(Nc3ccccc3)nc(N3CCCCC3)n1)OCO2 | inconclusive: 0.888 µM [activator, partial curve, poor fit]
CCOC(=O)Cn1c(CN2CCc3ccccc3C2)nc2c1c(=O)n(C)c(=O)n2C | inconclusive: 2.23 µM [activator, full curve, poor fit]
CCc1ccc(-c2cc(-c3n[nH]c(=S)n3CC)c3ccccc3n2)cc1 | inconclusive: 14.1 µM [activator, partial curve, poor fit]
S=c1[nH]c(-c2ccc(Br)cc2)cn1CCc1ccccc1 | active: 9.96 µM
O=C(CSCCO)Nc1ccc(C2CCCCC2)cc1 | inconclusive: 35.3 µM [inhibitor, single point]
CCOC(=O)c1oc2cccc(OCC(O)CNC(C)C)c2c1C (stereo not given) | inactive
CCOC(=O)c1ccc2nc(Nc3nc4ccc(F)cc4s3)sc2c1 | active: 5.6 µM
CCN1C(=O)/C(=C/c2ccc(N3CCCC3)cc2)NC1=S | active: 6.28 µM
Cc1ccc(S(=O)(=O)NCc2ccncc2)cc1 | inconclusive: 1.77 µM [activator, full curve]
COc1ccc(OC)c(NC(=S)N(CCc2c(C)[nH]c3ccccc23)Cc2cccs2)c1 | inconclusive: 12.5 µM [inhibitor, partial curve, poor fit]
CCn1nc(C)c(CN2CCC(n3nccc3NC(=O)c3ccc4c(c3)OCO4)CC2)c1C | inactive
O=C(NC(=S)Nc1nc(-c2ccccc2)cs1)c1cccnc1 | inconclusive: 15.8 µM [inhibitor, partial curve, poor fit]
Cn1c(=O)c2c(nc(NCc3ccco3)n2Cc2ccccc2Cl)n(C)c1=O | inconclusive: 0.353 µM [activator, partial curve, poor fit]
O=[N+]([O-])c1ccccc1/C=C/C=N/n1c(-c2ccccc2)n[nH]c1=S | inconclusive: 31.5 µM [inhibitor, single point]
COc1cc(OC)c(C2=NOC(C(=O)NCc3cccnc3)C2)cc1Cl (stereo not given) | inconclusive: 14.1 µM [activator, partial curve, poor fit]
OCCNc1nc2ccccc2n1-c1ncnc2sc3c(c12)CCC3 | inconclusive: 2.81 µM [activator, full curve]
COc1ccc2nc(NNC(=O)COc3ccccc3)sc2c1 | inconclusive: 7.91 µM [inhibitor, full curve, poor fit]
Cc1ccc(-c2cc(-c3nnc(SCC(=O)NCC(C)C)n3N)c3ccccc3n2)cc1 | inconclusive: 19.9 µM [activator, partial curve, poor fit]

Structures shown so far with a thiophene ring, fused or not:
Compound | Potency
COc1ccc(OC)c(NC(=S)N(CCc2c(C)[nH]c3ccccc23)Cc2cccs2)c1 | inconclusive: 12.5 µM [inhibitor, partial curve, poor fit]
OCCNc1nc2ccccc2n1-c1ncnc2sc3c(c12)CCC3 | inconclusive: 2.81 µM [activator, full curve]

Going on with the list:

Compound | Potency
COc1ccc(CC(=O)Nc2cc(C)c3c(=O)oc4ccccc4c3n2)cc1 | inconclusive: 6.28 µM [activator, partial curve, poor fit]
COc1cccc(/C=C2\SC(=S)N(CCCC(=O)N3CCCC3)C2=O)c1 | inconclusive: 31.5 µM [activator, partial curve, poor fit]
CCC(C)[C@H](NC(=O)NCc1ccco1)C(=O)O (stereo not given in full) | inactive
O=S(=O)(NCc1ccccn1)C(F)(F)F | active: 7.05 µM
S=c1[nH]nc(-c2cc(-c3ccccn3)nc3ccccc23)o1 | inconclusive: 35.3 µM [inhibitor, single point]
Clc1ccc(CSc2nnc(Cn3cnc4ccccc43)o2)cc1 | inconclusive: 2.81 µM [activator, full curve]
O=C(CN1CCCCCC1)Nc1ccc(S(=O)(=O)N2CCOCC2)cc1 | inactive
CCc1cc2c(cc3c(=O)n(CC(=O)NCCCN4CCCCCC4)nc(CC)n32)s1 | inconclusive: 1.41 µM [inhibitor, single point]
COc1cccc(CNS(=O)(=O)c2ccc3c(c2)CCN3C(=O)C2CC2)c1 | inconclusive: 17.7 µM [activator, partial curve]
CCN(CC)c1ncnc2sc3c(c12)CCC3 | inconclusive: 8.88 µM [activator, partial curve]
O=C(O)c1ccccc1SC1CC(=O)N(c2ccc3c(c2)OCO3)C1=O (stereo not given) | inconclusive: 35.3 µM [inhibitor, single point]
COc1cc(C(C#N)N2N=C(c3ccccc3)CC2c2ccccc2)ccc1O (stereo not given) | inconclusive: 2.5 µM [activator, full curve, poor fit]
Cc1cc(C)nc(-n2nc(C)cc2NC(=O)CNC(C)c2ccccc2)n1 (stereo not given) | active: 6.28 µM
Cc1ccc2nc(-c3ccc(NC(=O)COC(=O)c4ccc(=O)[nH]c4)cc3)sc2c1 | active: 1.41 µM
O=C1CC(c2ccc(F)cc2)CC(O)=C1C1NCCc2ccccc21 (stereo not given) | inactive
COc1ccc(-c2nc3c4ccccc4ccn3c2CN2CCCCC2)cc1OC | inconclusive: 31.5 µM [inhibitor, single point]
Cc1ccc2nc(-c3ccc(NC(=O)COC(=O)c4ccc([N+](=O)[O-])o4)cc3)sc2c1 | active: 0.315 µM
O=C(NC(=S)Nc1nc(-c2ccccc2)cs1)c1cncc(Br)c1 | active: 3.15 µM
CCOC(=O)C(C(=O)OCC)C(C(=O)OCC)N1CCOCC1 (stereo not given) | active: 3.15 µM
Cc1ccc(-c2n[nH]c(=S)n2/N=C/C=C\c2ccccc2[N+](=O)[O-])cc1 | inactive
